# Test results as given in patent US20210023074A1, “TREATMENT OF DEMYELINATING DISEASES” (Victoria Link Ltd., priority 2018, published 2021).
# Tested on: experimental autoimmune encephalomyelitis (EAE) mice
# Assay: EAE model of MS, disease score, treatment from day of disease onset (score >1)
# Type: in vivo, C57BL/6 mice
# Conditions: for disease score (functional recovery), comparison nalmefene vs clemastine: nalmefene 0.01 mg/kg i.p. daily, clemastine fumerate 10 mg/kg i.p., from disease onset
# Description: […] Shown are the aligned scores from mice (n=15 in Veh, 3 in 0.1, 8 in 0.03, 13 in 0.01, and 4 in 0.003 mg/kg groups) starting from onset/treatment initiation. ****p<0.0001 by two-way ANOVA all doses compared to vehicle.
# Experimental detail: EAE was induced in female C57BL/6 mice as described in Example 1. On the day of disease onset (score >1, dotted line), mice were started on daily treatment with vehicle only (Veh) or nalmefene (NaIM) at 0.1, 0.03, 0.01, or 0.003 mg/kg by i.p. injection. The peak disease score during the first EAE episode was recorded and shown are the mean and standard error of individual mice (n=15 in Veh, 3 in 0.1, 8 in 0.03, 13 in 0.01, and 4 in 0.003 mg/kg groups). **p<0.01 compared to vehicle by Kruskal-Wallis with Dunn's multiple comparison test.
# […] Shown are the percentages of mice in each group that recovered (n=15 in Veh, 3 in 0.1, 8 in 0.03, 13 in 0.01, and 4 in 0.003 mg/kg groups). ****p<0.0001, **p<0.01, and *p<0.05 by Fisher's exact test compared to vehicle.
# […] Shown are the number of days mice were in recovery in each group (n=15 in Veh, 3 in 0.1, 8 in 0.03, 13 in 0.01, and 4 in 0.003 mg/kg groups). ****p<0.0001 and *p<0.05 by one-way ANOVA with Holm-Sidak's multiple comparison test.
# Experimental detail: EAE was induced in female C57BL/6 mice as described in Example 1. On the day of disease onset (score >1, dotted line), mice were treated with vehicle only (daily), nalmefene (0.01 mg/kg by i.p. injection daily), the KOR antagonist norBNI (10 mg/kg by i.p. injection weekly), both nalmefene and norBNI, or the MOR antagonist BFNA (10 mg/kg by i.p. injection weekly). Shown are the aligned scores from mice (n=7-9/group) starting from onset/treatment initiation. ****p<0.0001 by two-way ANOVA NaIM compared to vehicle or NalM+noBNI, and NalM+norBNI compared to vehicle.
# Experimental detail: EAE was induced in female C57BL/6 mice as described in Example 1. […] The peak disease score during the first EAE episode was recorded, and mice were considered recovered if they received a score <0.5 by day 23 post treatment initiation. […]
smiles,measurement,setting,value
CN1CCC[C@@H]1CCO[C@](C)(c1ccccc1)c1ccc(Cl)cc1 [clemastine fumerate],percentage of mice recovered (score <0.5 by day 23 post treatment initiation),10 mg/kg i.p. from disease onset,over 50%
same,"disease score (functional recovery), comparison nalmefene vs clemastine",,reduction (but not ablation) of disease
same,"disease score (functional recovery), comparison nalmefene vs clemastine",listed as clemastine,much less effective that nalmefene at enabling full functional recovery
